This assay concerns the target T1, NRP-1 recombinant chimeric protein (not stated (recombinant human/rat NRP-1 proteins bought)) (UniProt O14786).
T1 sequence: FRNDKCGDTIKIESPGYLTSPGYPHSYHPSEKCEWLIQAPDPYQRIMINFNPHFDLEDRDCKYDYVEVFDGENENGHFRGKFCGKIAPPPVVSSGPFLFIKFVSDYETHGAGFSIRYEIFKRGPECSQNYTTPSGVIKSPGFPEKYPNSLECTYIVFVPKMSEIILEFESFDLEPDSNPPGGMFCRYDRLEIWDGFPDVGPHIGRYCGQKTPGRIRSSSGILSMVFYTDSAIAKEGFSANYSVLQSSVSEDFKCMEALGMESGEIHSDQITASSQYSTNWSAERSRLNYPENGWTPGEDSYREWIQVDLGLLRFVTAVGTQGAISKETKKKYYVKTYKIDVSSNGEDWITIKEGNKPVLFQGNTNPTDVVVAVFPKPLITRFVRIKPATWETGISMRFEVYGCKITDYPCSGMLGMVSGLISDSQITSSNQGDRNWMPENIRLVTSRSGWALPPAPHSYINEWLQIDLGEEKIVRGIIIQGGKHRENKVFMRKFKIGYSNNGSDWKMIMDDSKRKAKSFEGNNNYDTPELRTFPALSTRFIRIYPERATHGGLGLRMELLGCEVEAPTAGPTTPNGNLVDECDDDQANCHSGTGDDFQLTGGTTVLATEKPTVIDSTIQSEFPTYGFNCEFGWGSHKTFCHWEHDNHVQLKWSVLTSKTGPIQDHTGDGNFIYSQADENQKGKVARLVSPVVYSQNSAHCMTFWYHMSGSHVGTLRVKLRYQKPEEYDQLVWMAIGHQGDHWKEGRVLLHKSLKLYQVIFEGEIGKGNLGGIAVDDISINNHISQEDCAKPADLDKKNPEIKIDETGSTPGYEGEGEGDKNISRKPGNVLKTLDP
Description: ELISA; competitive binding assay: NRP-1 recombinant chimeric protein coated on Maxisorp microplates; biotinylated VEGF-165 with heparin, with or without increasing concentrations of compounds; 2 h at room temperature; bound b-VEGF-165 detected with streptavidin-HRP, OD 450 nm; IC50 by one-site fit log-IC50; both purified. For orientation: In an ELISA, binding on a coated surface is turned into a signal by an enzyme label.

These are yes or no findings as the source states them, for the method shown. Some binding calls cover weakened binding; strength is not graded here.

B1: KDKPPR peptide (peptide)
peptide: KDKPPR
For B1, the binding entry is on record as “binds”.

The values above are taken from publication PMC8659110, “Preliminary Study of New Gallium-68 Radiolabeled Peptide Targeting NRP-1 to Detect Brain Metastases by Positron Emission Tomography” (Molecules, 2021).
